Earlier results in patent US20070166816A1, “Assay device that analyzes the absorption, metabolism, permeability and/or toxicity of a candidate compound” (Surface Logix, Inc., priority 2002, published 2007).

System: Caco-2 cells
Conditions: previously characterized in Caco-2 assays; qualitative grade

Absorbance in vitro: Very Low
SMILES: NS(=O)(=O)c1cc(C(=O)O)c(NCc2ccco2)cc1Cl [Furosemide]
